Data as given in PubChem BioAssay AID504784 (Drosophila RNAi Screening Center, 2011).

- Purpose: 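Search for regulators of lipid droplet storage in oleate-fed fly cells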 (primary screen)
- System: Drosophila Kc167 embryonic cells
- Reagents: long dsRNA against Drosophila genes, about 250 ng dsRNA per well
- Timing: 4 days
- Conditions: cells fed 400 µM oleic acid bound to BSA
- Read-out: 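Cells imaged and segmented; ratio of lipid droplet area to nuclear area, log-transformed, then normalised as a B-score over the screen; higher means more stored lipid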
- Direction: droplet/nuclear area B-score: higher = more stored lipid (overstorage)
The screen tested about 17,000 reagents; this is an unselected part of those with a known target gene and a result. 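Each column is one replicate's B-score; the combined score over replicates was not deposited, so single values may mislead.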 Names joined by + are all predicted targets of the reagent.

| Gene | DRSC id | droplet/nuclear area B-score, replicate 1 | droplet/nuclear area B-score, replicate 2 | droplet/nuclear area B-score, replicate 3 |
| --- | --- | --- | --- | --- |
| CG10086 (GeneID 40920) | DRSC14183 | 0.403 | -1.05 | – |
| Rabex-5 (GeneID 38144) | DRSC08628 | -0.396 | -2.26 | – |
| Alk (GeneID 53425) | DRSC05918 | -1.11 | -1.49 | 0.733 |
| Alk (GeneID 53425) | DRSC23342 | -0.378 | -0.159 | – |
| CG9948 (GeneID 38757) | DRSC11104 | 0.525 | -1.09 | – |
| Tsf3 (GeneID 36800) | DRSC06849 | -0.475 | -0.0242 | – |
| PTP-ER (GeneID 37461) | DRSC04636 | -0.985 | 0.0526 | – |
| PTP-ER (GeneID 37461) | DRSC23325 | -0.275 | -1.05 | – |
| CG30172 (GeneID 246496) | DRSC21519 | -0.185 | 0.789 | – |
| CG8746 (GeneID 35867) | DRSC07257 | 1.65 | 1.05 | – |
| Muc30E (GeneID 2768931) | DRSC01101 | 2.02 | 2.17 | 0.229 |
| CG8142 (GeneID 32763) | DRSC20086 | -1.32 | -0.933 | – |
| ND-20 (GeneID 32565) | DRSC20164 | 4.16 | 1.06 | 1.63 |
| CG30159 (GeneID 35611) | DRSC04981 | -0.339 | -0.866 | – |
| ND-B14.7 (GeneID 37385) | DRSC04544 | 2.36 | 0.264 | – |

Entries listed so far whose target name starts with C or c (6):
| Gene | DRSC id | droplet/nuclear area B-score, replicate 1 | droplet/nuclear area B-score, replicate 2 | droplet/nuclear area B-score, replicate 3 |
| --- | --- | --- | --- | --- |
| CG10086 (GeneID 40920) | DRSC14183 | 0.403 | -1.05 | – |
| CG9948 (GeneID 38757) | DRSC11104 | 0.525 | -1.09 | – |
| CG30172 (GeneID 246496) | DRSC21519 | -0.185 | 0.789 | – |
| CG8746 (GeneID 35867) | DRSC07257 | 1.65 | 1.05 | – |
| CG8142 (GeneID 32763) | DRSC20086 | -1.32 | -0.933 | – |
| CG30159 (GeneID 35611) | DRSC04981 | -0.339 | -0.866 | – |

Additional reagents follow:
| Gene | DRSC id | droplet/nuclear area B-score, replicate 1 | droplet/nuclear area B-score, replicate 2 | droplet/nuclear area B-score, replicate 3 |
| --- | --- | --- | --- | --- |
| Hcs (GeneID 40659) | DRSC12070 | 0.697 | -0.907 | – |
| Hcs (GeneID 40659) | DRSC12256 | 0.407 | -0.272 | – |
| CG33286 (GeneID 2768984) | DRSC11691 | -0.264 | -1.85 | – |
| CG1233 (GeneID 38063) | DRSC08269 | -0.325 | 0.616 | – |
| CG11970 (GeneID 41072) | DRSC14157 | 1.36 | -1.1 | – |
| Syp (GeneID 42460) | DRSC13444 | 1.79 | 0.491 | – |
| Syp (GeneID 42460) | DRSC15286 | 0.933 | -0.821 | – |
| CG3520 (GeneID 37708) | DRSC04383 | -2.9 | 0.476 | – |
| CG9586 (GeneID 34241) | DRSC03270 | -0.462 | -0.0546 | – |
| CG1635 (GeneID 43720) | DRSC15131 | 0.682 | 0.674 | – |
| CG18649 (GeneID 39636) | DRSC10334 | 0.922 | -1.08 | – |
| CG10139 (GeneID 36626) | DRSC05972 | 0.016 | 0.604 | – |
| CG6443 (GeneID 34477) | DRSC02958 | 1.07 | 2.98 | – |
| CG34277 + CG31542 | DRSC21544 | -0.227 | -0.729 | – |
| CG42560 + CG42559 | DRSC21873 | 0.0261 | 1.27 | – |
| Adgf-D (GeneID 41679) | DRSC16521 | -0.814 | 0.708 | – |
| ftz (GeneID 40834) | DRSC12626 | 0.319 | -0.0573 | – |
| CG32050 (retired record) (GeneID 39154) | DRSC10173 | 2.6 | 2.01 | – |
| CG12496 (GeneID 31226) | DRSC18602 | 0.307 | -2.39 | – |
